No constants are given. Whether binding was seen depends on the method and setting. In cells and extracts the contact can be indirect. Some binding calls cover weakened binding; strength is not graded here. Where a sequence is shown, tags or fusion partners need not be part of it.
Legend:
Assay in all cases: co-IP; 293T cells transfected 24 h with Flag-tagged TRAFs or their truncations and HA-tagged TBK1, HA-tagged IKKε or HA-tagged MAVS; IP anti-Flag, Western blot
[1] = target: T1, Flag-tagged TRAF6-d1 (lacking amino acids 1–259) (human) (UniProt Q9Y4K3)
T1 sequence: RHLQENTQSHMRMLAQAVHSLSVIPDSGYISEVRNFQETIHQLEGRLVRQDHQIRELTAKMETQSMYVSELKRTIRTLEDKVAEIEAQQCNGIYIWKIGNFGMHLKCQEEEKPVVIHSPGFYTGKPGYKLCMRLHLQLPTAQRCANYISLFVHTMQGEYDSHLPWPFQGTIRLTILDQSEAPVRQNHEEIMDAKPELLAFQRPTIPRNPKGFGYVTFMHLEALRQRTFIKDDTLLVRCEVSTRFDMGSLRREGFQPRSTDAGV

[2] = target: T2, Flag-tagged TRAF2-d1 (lacking amino acids 1–233) (human) (UniProt Q12933)
T2 sequence: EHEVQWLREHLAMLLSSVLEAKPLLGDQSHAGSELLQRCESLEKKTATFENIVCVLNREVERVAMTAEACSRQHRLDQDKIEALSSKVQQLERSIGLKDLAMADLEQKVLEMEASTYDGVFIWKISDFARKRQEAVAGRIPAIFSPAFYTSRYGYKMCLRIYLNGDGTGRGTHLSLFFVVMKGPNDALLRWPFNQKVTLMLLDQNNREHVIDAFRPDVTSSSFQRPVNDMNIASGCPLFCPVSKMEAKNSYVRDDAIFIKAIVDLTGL

[3] = target: T3, Flag-tagged TRAF6-dR (lacking amino acids 70–109) (human) (UniProt Q9Y4K3)
T3 sequence: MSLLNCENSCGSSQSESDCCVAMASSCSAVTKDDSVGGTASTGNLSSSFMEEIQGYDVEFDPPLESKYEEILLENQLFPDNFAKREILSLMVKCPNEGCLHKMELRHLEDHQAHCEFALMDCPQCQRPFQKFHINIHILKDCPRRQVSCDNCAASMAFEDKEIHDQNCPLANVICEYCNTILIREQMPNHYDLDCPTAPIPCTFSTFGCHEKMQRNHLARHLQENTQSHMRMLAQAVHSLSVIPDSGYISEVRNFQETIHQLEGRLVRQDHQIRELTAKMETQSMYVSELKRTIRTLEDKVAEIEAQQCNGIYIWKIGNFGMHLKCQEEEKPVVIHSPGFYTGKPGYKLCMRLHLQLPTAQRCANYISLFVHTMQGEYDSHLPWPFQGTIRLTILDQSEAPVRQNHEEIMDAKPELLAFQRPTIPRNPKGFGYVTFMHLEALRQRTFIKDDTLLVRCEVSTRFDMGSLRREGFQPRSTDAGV

[4] = target: T4, Flag-tagged TRAF3-d1 (lacking amino acids 1–249) (human) (UniProt Q13114)
T4 sequence: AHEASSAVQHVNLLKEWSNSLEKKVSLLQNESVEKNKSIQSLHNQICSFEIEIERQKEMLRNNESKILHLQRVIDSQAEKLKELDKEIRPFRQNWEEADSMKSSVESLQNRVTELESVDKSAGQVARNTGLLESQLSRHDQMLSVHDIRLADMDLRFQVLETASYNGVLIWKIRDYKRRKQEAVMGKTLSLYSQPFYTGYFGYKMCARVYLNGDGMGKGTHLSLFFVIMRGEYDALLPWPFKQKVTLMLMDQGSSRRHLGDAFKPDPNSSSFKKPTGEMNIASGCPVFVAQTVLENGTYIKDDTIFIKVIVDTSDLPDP

[5] = target: T5, Flag-tagged TRAF3-dR (lacking amino acids 68–77) (human) (UniProt Q13114)
T5 sequence: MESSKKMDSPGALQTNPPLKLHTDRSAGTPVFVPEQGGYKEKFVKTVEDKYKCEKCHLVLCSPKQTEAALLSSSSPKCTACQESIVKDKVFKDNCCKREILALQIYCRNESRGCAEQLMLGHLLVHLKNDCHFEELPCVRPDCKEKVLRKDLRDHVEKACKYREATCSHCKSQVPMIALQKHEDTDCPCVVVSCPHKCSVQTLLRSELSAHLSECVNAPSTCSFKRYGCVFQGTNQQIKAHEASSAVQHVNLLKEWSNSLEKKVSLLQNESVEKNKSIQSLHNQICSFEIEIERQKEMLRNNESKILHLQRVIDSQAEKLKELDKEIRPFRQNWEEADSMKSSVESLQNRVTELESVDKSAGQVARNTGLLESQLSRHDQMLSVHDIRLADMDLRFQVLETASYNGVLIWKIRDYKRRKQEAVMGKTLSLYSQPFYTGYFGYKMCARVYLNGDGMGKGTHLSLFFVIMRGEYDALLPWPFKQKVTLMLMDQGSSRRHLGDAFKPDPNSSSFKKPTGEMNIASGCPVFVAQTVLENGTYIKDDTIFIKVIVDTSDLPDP

[6] = target: T6, Flag-tagged TRAF2-dR (lacking amino acids 34–73) (human) (UniProt Q12933)
T6 sequence: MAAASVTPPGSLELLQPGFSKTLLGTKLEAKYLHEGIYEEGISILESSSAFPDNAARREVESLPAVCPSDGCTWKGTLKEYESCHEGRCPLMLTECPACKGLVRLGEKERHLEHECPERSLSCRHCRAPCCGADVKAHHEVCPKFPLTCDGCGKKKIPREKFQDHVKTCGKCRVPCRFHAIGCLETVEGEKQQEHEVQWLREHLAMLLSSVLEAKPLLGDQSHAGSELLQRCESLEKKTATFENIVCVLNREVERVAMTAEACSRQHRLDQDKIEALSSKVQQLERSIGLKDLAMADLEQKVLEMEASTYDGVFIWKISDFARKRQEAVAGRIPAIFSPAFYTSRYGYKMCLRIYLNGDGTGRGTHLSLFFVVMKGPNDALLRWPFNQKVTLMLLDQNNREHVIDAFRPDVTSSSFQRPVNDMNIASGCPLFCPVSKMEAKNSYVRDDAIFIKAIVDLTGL

[7] = target: T7, Flag-tagged TRAF2 (human) (UniProt Q12933)
T7 sequence: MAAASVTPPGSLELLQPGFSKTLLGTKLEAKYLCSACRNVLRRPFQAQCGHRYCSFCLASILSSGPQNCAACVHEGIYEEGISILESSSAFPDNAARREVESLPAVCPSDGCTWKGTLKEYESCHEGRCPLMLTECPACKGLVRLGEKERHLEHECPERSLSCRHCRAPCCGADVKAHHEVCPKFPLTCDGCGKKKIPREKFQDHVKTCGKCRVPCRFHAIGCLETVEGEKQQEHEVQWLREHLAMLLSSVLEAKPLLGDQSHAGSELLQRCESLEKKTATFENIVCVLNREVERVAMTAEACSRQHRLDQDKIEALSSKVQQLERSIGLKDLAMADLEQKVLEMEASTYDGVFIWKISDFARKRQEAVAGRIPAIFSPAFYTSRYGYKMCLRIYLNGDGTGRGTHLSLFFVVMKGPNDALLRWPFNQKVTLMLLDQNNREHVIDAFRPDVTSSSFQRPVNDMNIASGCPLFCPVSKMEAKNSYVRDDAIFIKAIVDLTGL

Measured: binding

B1: HA-tagged TBK1 (protein, UniProt Q9UHD2 1-729)
chain: MQSTSNHLWLLSDILGQGATANVFRGRHKKTGDLFAIKVFNNISFLRPVDVQMREFEVLKKLNHKNIVKLFAIEEETTTRHKVLIMEFCPCGSLYTVLEEPSNAYGLPESEFLIVLRDVVGGMNHLRENGIVHRDIKPGNIMRVIGEDGQSVYKLTDFGAARELEDDEQFVSLYGTEEYLHPDMYERAVLRKDHQKKYGATVDLWSIGVTFYHAATGSLPFRPFEGPRRNKEVMYKIITGKPSGAISGVQKAENGPIDWSGDMPVSCSLSRGLQVLLTPVLANILEADQEKCWGFDQFFAETSDILHRMVIHVFSLQQMTAHKIYIHSYNTATIFHELVYKQTKIISSNQELIYEGRRLVLEPGRLAQHFPKTTEENPIFVVSREPLNTIGLIYEKISLPKVHPRYDLDGDASMAKAITGVVCYACRIASTLLLYQELMRKGIRWLIELIKDDYNETVHKKTEVVITLDFCIRNIEKTVKVYEKLMKINLEAAELGEISDIHTKLLRLSSSQGTIETSLQDIDSRLSPGGSLADAWAHQEGTHPKDRNVEKLQVLLNCMTEIYYQFKKDKAERRLAYNEEQIHKFDKQKLYYHATKAMTHFTDECVKKYEAFLNKSEEWIRKMLHLRKQLLSLTNQCFDIEEEVSKYQEYTNELQETLPQKMFTASSGIKHTMTPIYPSSNTLVEMTLGMKKLKEEMEGVVKELAENNHILERFGSLTMDGGLRNVDCL
binds: [1] | [2] | [3] | [4] | [5] | [6] | [7]

B2: HA-tagged IKKε (protein, UniProt Q14164 1-716)
chain: MQSTANYLWHTDDLLGQGATASVYKARNKKSGELVAVKVFNTTSYLRPREVQVREFEVLRKLNHQNIVKLFAVEETGGSRQKVLVMEYCSSGSLLSVLESPENAFGLPEDEFLVVLRCVVAGMNHLRENGIVHRDIKPGNIMRLVGEEGQSIYKLTDFGAARELDDDEKFVSVYGTEEYLHPDMYERAVLRKPQQKAFGVTVDLWSIGVTLYHAATGSLPFIPFGGPRRNKEIMYRITTEKPAGAIAGAQRRENGPLEWSYTLPITCQLSLGLQSQLVPILANILEVEQAKCWGFDQFFAETSDILQRVVVHVFSLSQAVLHHIYIHAHNTIAIFQEAVHKQTSVAPRHQEYLFEGHLCVLEPSVSAQHIAHTTASSPLTLFSTAIPKGLAFRDPALDVPKFVPKVDLQADYNTAKGVLGAGYQALRLARALLDGQELMFRGLHWVMEVLQATCRRTLEVARTSLLYLSSSLGTERFSSVAGTPEIQELKAAAELRSRLRTLAEVLSRCSQNITETQESLSSLNRELVKSRDQVHEDRSIQQIQCCLDKMNFIYKQFKKSRMRPGLGYNEEQIHKLDKVNFSHLAKRLLQVFQEECVQKYQASLVTHGKRMRVVHETRNHLRLVGCSVAACNTEAQGVQESLSKLLEELSHQLLQDRAKGAQASPPPIAPYPSPTRKDLLLHMQELCEGMKLLASDLLDNNRIIERLNRVPAPPDV
binds: [1] | [2] | [3] | [4] | [5] | [6] | [7]
